CoaBC: 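Enzyme assay of CoaBC with a phosphate dye (Biomol Green) read at 650 nm. Target: Coenzyme A biosynthesis protein CoaBC, Mycobacterium tuberculosis (UniProt P9WNZ1). Concentration: 30 µM. Direction is inferred from only a few compounds that gave an IC50; most scored high, so higher reads as stronger inhibition. Most strong results did not repeat in a second test. Of about 67,000 compounds tested this way, about 40 (0.06%) reached 50% or more in at least one test.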
Toxoplasma: 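Assay of Toxoplasma gondii numbers, read through their beta-galactosidase reporter with a colour substrate. Concentration: 10 µM. The record gives no direction; the compounds picked for IC50 retests had high values, so higher reads as fewer parasites. Size under these conditions: about 67,000 compounds, about 260 of them at 50% or above in at least one test.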
Leishmania in macrophages: 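Cell assay of Leishmania donovani living inside macrophages; the read-out is not stated. Compounds at 30 µM. Direction is inferred from retests: higher values go with stronger inhibition. Of about 69,000 compounds tested this way, about 1,000 (1.5%) reached 50% or more in at least one test.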
MtTrpRS: 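Tryptophan-tRNA ligase, Mycobacterium tuberculosis (UniProt P9WFT3). Enzyme assay of tryptophanyl-tRNA synthetase; the read-out is not stated. Tested at 10 µM. Higher most likely means stronger inhibition; the record gives no direction and few retests gave an IC50. Size under these conditions: about 65,000 compounds, about 64 of them at 50% or above in at least one test.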
LiHisRS: 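Enzyme assay of histidyl-tRNA synthetase; the read-out is not stated. Target: Histidine-tRNA ligase, Leishmania infantum (UniProt A4I591). Compounds at 30 µM. Direction is inferred from retests: higher values go with stronger inhibition. The assay is labelled LdHisRS but filed under L. infantum. Size under these conditions: about 69,000 compounds, about 410 of them at 50% or above in at least one test.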

Amino acid sequences for entries named in this document (tags omitted). Residues count along the entry.
UniProt P9WNZ1, whole entry: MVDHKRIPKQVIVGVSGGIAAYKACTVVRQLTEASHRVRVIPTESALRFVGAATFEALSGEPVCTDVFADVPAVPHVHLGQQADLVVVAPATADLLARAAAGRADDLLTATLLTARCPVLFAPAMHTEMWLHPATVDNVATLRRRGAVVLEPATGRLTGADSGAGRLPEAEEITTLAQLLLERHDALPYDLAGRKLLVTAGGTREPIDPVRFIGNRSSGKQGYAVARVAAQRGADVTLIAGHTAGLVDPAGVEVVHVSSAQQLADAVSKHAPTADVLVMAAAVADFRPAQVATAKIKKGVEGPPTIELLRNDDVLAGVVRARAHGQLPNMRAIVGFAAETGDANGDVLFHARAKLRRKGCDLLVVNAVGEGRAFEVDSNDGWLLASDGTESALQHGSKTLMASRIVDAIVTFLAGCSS
UniProt P9WFT3, whole entry: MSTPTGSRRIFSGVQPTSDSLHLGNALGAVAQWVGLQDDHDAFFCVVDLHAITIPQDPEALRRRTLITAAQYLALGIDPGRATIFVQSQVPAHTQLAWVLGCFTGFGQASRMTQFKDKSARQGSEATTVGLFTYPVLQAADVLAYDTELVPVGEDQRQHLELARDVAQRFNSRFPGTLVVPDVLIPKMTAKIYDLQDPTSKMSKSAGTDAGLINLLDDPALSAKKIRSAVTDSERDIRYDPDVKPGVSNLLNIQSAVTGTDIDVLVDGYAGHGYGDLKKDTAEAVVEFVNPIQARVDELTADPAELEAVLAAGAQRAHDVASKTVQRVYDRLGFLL
UniProt A4I591, 1-473: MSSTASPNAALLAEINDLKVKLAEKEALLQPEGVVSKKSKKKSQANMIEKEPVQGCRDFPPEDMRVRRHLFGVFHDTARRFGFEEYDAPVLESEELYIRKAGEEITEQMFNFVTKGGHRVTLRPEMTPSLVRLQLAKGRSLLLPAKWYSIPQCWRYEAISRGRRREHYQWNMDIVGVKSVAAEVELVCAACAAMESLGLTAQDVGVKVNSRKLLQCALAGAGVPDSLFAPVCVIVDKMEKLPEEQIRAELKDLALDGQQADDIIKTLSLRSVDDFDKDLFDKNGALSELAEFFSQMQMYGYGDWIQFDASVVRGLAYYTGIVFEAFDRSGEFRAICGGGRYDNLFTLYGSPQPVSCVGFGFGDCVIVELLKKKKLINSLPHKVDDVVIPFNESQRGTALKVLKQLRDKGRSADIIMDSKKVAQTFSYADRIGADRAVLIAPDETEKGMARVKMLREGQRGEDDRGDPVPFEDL

Each number is a percent effect as filed.
The record does not define 0% and 100%; most values in the screen are far below 50% and negative numbers occur (in some assays of this library far below -100).
Compounds were drawn at random from those tested, without regard to their results.
Two or more numbers in one place are separate tests of the same structure; such repeats can differ widely.
A dash means the value is not listed here; it may have been measured.

structure | CoaBC | Toxoplasma | Leishmania in macrophages | MtTrpRS | LiHisRS
Cc1noc([C@@H]2CC[C@@H]3[C@@H](CCN3S(=O)(=O)C3CC3)O2)n1 | 5.176 | - | - | 0 | 9.615
Cc1oc(C(=O)O)cc1S(=O)(=O)Nc1cc(Cl)ccc1F | 1.446 | 1.694 | 18.1 | 5.675 | 8.219
CCN(CCCc1ccccc1)CC1(C)Cc2c(N)nc(N)nc2O1 (centres unmarked) | 0.7884 | 32.64 | -18.72 | 2.073 | 0
Cc1noc(C)c1-c1cnc(CC2CCN(C(=O)c3cc[nH]n3)C2)cn1 (centres unmarked) | -8.889 | -3.908 | 17.8 | -1.589 | 22.22
Cc1nc(C2CCNCC2)cc(N2CCOc3ccccc3C2)n1 | 5.392 | -0.7941 | 38.29 | -3.21 | 22.22
CC(C)C(=O)NC1COC2(CCN(C(=O)c3ccc[nH]3)CC2)C1 (centres unmarked) | 9.415 | 5.306 | -11.39 | -2.183 | 15.53
COc1cc(CNc2cnn(CC(F)F)c2)ccc1O | 0.6135 | -4.379 | 10.23 | - | 30.93
CCC(CN1CCCC1)n1cncc1-c1cnn(Cc2ccccc2)c1.Cl (centres unmarked) | - | 15.76 | 5.656 | - | -
COc1ccc(CN2CCN(C(=O)N(C)C)[C@@H]3CS(=O)(=O)C[C@@H]32)cc1F | 8.333 | - | - | 9.964 | 22.22
Cc1cccc(S(=O)(=O)NC(=O)CN(C)Cc2ccccc2)c1 | 1.582 | 4.962 | 14.38 | 2.882 | -1.299
O=C(CNC(=O)N1CCN(c2cccc(Cl)c2)CC1)Nc1ccccn1 | -0.9434 | -19.13 | -12.29 | -2.002 | 5.495
Cc1ccc(NC(=O)N2CCN(Cc3ccccn3)CC2)cc1Cl | 3.559 | 9.102 | -85.74 | 2.007 | 5.31
COc1c(CNC2CCC(O)CC2)c(C(C)C)nn1C (centres unmarked) | 6.258 | -10.68 | 15.76 | -4.622 | 8.036
Cc1ccc(S(=O)(=O)NC[C@H]2OC[C@@H](NCc3ccccn3)[C@@H]2O)cc1 | 9.934 | 4.204 | 12.03 | -0.6829 | 17.57
O=C(Nc1ccc(-c2ccccc2)cn1)C1CCCN1C(=O)C1CC1 (centres unmarked) | -1.08 | 0.8933 | 22.06 | -3.526 | 14.29
Cc1nc(Nc2ccccn2)cc(C2CCCN2Cc2ncc[nH]2)n1 (centres unmarked) | 5.569 | 0.4221 | 16.72 & 7.11 | - | 4.124
CCOc1ncccc1Cn1cc(-c2cncnc2)nn1 | - | -3.196 | 9.478 | 2.683 | 22.5
Cc1nc(C)n(CC2CCCN(CCC(=O)NC3CCCCC3)C2)n1 (centres unmarked) | 5.744 | 2.279 | 8.116 | 2.884 | 9.735
CN1CCC(CNC(=O)c2ccc3cccc(Cl)c3n2)C1 (centres unmarked) | -10.91 | -2.54 | 11.16 | -5.651 | 30.14
Cc1cnn(CC2CN(Cc3nc4ccccc4nc3C)CCO2)c1 (centres unmarked) | 3.077 | 1.122 | 16.21 | 5.551 | 16
CCOCC1CCN(C(=O)Nc2ccc3c(c2)CCCO3)C1 (centres unmarked) | - | -4.795 | 9.402 | 1.238 | 0.8333
CCOc1cc(N2CCN(C(=O)c3ccc(OC)cc3)CC2)nc(C)n1 | -7.143 | -9.155 | 8.391 | 7.719 | 5.983
CCC(NC(=O)c1cc(NC(C)=O)ccc1Cl)c1cc(C)ccn1 (centres unmarked) | -0.1229 | -7.29 | 11.44 | 0.7389 | 12.4
c1cnn(CC2CN(Cc3csc(C4CCCCC4)n3)CCO2)c1 (centres unmarked) | 3.704 | -6.941 | 19.06 | -0.5136 | -15.18
NC(=O)C1CCN(C(=O)NCc2ccccc2-n2cccn2)C1 (centres unmarked) | -0.7833 | 1.474 | 11.27 | -6.257 | 10.34
CNC(=O)C(C)(C)N1CCC[C@H]1C(=O)NC(C)(C)C | -2.032 | -8.623 | -7.001 | 1.28 | 5.556
Cn1c(CC2CCS(=O)(=O)C2)nnc1SCCOc1cccc(Cl)c1 (centres unmarked) | 9.692 | -0.6911 | -2.13 | 0.3353 | 18.87
O=C(O)C(F)(F)F.O=C(O)C(F)(F)F.[H][C@@]12C[C@H](C(=O)NCC(C)C)[C@@]([H])(CN(Cc3cccnc3)C1)O2 | - | -4.947 | 8.258 | - | -
Cc1oncc1C(=O)N1CCC2(CCN(Cc3cccnc3)C2=O)C1 (centres unmarked) | 2.423 | - | - | 0.7656 | 1.064
CC(=O)NCC1CCN(C(=O)c2c(C)[nH]c3ccc(Cl)cc23)CC1 | 6.226 | -3.523 | 9.714 | 4.179 | 4.505
O=C(O)C(F)(F)F.O=C(O)C(F)(F)F.[H][C@@]12COC[C@@H](C(=O)NCc3ccccn3)[C@]1([H])CN(C1CCC1)C2 | - | -6.995 | 23.41 | - | -
O=C(O)C(F)(F)F.O=C(O)C(F)(F)F.O=C(c1ccsc1)N1CCC2(CC1)COCCN(Cc1ccncc1)C2 | - | 5.869 | 22.84 | - | -
O=C(O)C(F)(F)F.c1cnc(N2CCCn3nnc(COCC4CC4)c3C2)nc1 | - | 2.606 | 18.05 | - | -
N#Cc1ccc(CNC(=O)NC2CCN(c3ncccn3)CC2)cc1 | -36.05 | -2.725 | 7.697 | -3.958 | 19.67
O=C(COc1ccc2c(c1)CCC2)N1CCCC1c1ccc[nH]1 (centres unmarked) | 7.506 | 8.78 | 27.86 | 1.039 | 12.2
O=C(c1cccnc1)N1CCCC2(CCN(c3ccsc3)C2=O)C1 (centres unmarked) | 0.1267 | - | - | -4.079 | 0.9709
N#CCSCCCN1CCN(C(=O)C2CCCC2)CC1 | 1.653 | -1.762 | 19.02 | -0.9726 | 1.333
COCCN(CCOC)C(=O)c1c[nH]nc1-c1cccc(F)c1 | 3.23 | 23.49 | -0.3053 | -1.952 | 8.197
[H][C@]12CN(CCCc3cccnc3)CC[C@@]1(O)CCN(S(=O)(=O)N(C)C)C2 | - | 3.415 | -18.56 | - | -

Measurements from “University of Dundee, Small-Polar-MMV Screening Library” (2021), ChEMBL document CHEMBL3988442.